US20140017187A1, “Use of 5-(7-methoxy-3,3-dimethyl-2,3-dihydro-1-benzoxepin-5-yl)-3-methyl-penta-2,4-dienoic acid as a cosmetic” (Merck Patent GmbH, priority 2008, published 2014)

System: human skin model
Assay: cDNA microarray gene expression profiling (Affymetrix) of treated skin equivalents, GeneGO MetaCore analysis
Type: cell-based
Procedure: One of the advantages of cDNA microarray is the possibility to observe the expression pattern of the whole genes and compare with different conditions. This is the first study to determine the gene expression profiles of Compound-treated human skin. For the analysis of deregulated gene expression induced by substance Compound, treated and control samples from a human skin model were analyzed with Affymetrix oligonucleotide microarrays. Skin has been among the first organs analysed using DNA-Microarrays. In addition, epidermal keratinocytes have been the target of many studies because they respond to a rich variety of inflammatory and immunmodulating cytokines, hormones, vitamins, ultraviolet (UV) light, toxins and physical injury. Altered gene expression after applying substance Compound was analysed with an Affymetrix system.
For gene expression studies skin equivalents were treated with 50 μL of 2 relevant substance Compound with a concentration of c=50 μM in PBS-buffer/DMSO. Buffer-treated skin equivalents served as controls.
A ratio (log 2) value of zero indicates no regulation, whereas positive (log 2) values indicate an upregulation and negative (log 2) values a downregulation of the relevant gene.
The experiment contains 759 genes with the specified threshold (Appendix A)
GeneGO's Metacore (Pathways and Maps) Software. […]

COc1ccc2c(c1)C(/C=C/C(C)=C/C(=O)O)=CC(C)(C)CO2 [Compound, 5-(7-methoxy-3,3-dimethyl-2,3-dihydro-1-benzoxepin-5-yl)-3-methyl-penta-2,4-dienoic acid]
number of top 100 upregulated genes with at least one strong (high scored) site of PPAR: 14
